The campaign covered roughly 260,000 compounds. About 1,500 (0.58%) were called active. This list was built around the results that the source calls inconclusive (neither active nor inactive); the mix of calls is not that of the screen.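 Rule for the calls: active = inhibition above a set limit at one or more doses, reproduced on every date tested; inconclusive = results disagree between test dates, or hit never tested in dose response; inactive = the rest.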
What follows are compounds tested against Virion infectivity factor (Human immunodeficiency virus type 1 group M subtype B (isolate BH10)) + Virion infectivity factor (Human immunodeficiency virus type 1 group M subtype B (isolate BRU/LAI)) + Virion infectivity factor (Human immunodeficiency virus type 1 group M subtype B (isolate PCV12)) + Virion infectivity factor (Human immunodeficiency virus type 1 group M subtype B (isolate HXB2)) + DNA dC->dU-editing enzyme APOBEC-3G (Homo sapiens) (UniProt P69720+P69721+P69722+P69723+Q9HC16) (assay: inhibitors of Vif binding to APOBEC3G peptide, primary screen, biochemical, TR-FRET, GST-Vif 1-94, biotin-A3G peptide, dose response retest (AID 1117319;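 note: Vif residues 1-94 fused to GST binding biotinylated APOBEC3G peptide 110-148; 0% = full assay without inhibitor and 100% = GST in place of GST-Vif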)). Settings: active compounds read high.

The chains behind the UniProt entries cited, without tags or fusion partners. Where a name states a change or a piece, a line headed by the entry shows the natural chain unless it says otherwise.
UniProt P69720: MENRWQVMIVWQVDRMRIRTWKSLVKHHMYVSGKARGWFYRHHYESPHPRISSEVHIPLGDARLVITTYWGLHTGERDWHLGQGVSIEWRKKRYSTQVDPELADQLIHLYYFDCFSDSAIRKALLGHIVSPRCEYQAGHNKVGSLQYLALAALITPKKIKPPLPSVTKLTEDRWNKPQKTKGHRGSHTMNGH
UniProt P69721: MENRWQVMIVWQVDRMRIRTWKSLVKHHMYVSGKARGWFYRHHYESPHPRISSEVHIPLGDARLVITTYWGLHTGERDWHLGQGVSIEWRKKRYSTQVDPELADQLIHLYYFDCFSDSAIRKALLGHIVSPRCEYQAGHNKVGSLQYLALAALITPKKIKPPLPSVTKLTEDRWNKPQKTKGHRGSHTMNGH
UniProt P69722: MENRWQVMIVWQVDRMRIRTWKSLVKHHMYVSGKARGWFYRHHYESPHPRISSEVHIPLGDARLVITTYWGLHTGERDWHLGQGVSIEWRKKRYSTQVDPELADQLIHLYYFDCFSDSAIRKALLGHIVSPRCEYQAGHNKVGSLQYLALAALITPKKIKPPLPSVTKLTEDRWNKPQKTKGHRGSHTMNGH
UniProt P69723: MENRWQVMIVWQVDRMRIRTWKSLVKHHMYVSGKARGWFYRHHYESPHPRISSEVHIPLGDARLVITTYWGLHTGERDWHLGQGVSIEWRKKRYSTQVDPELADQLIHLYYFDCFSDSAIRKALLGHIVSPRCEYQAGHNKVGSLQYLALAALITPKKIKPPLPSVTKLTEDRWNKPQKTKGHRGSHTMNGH
UniProt Q9HC16: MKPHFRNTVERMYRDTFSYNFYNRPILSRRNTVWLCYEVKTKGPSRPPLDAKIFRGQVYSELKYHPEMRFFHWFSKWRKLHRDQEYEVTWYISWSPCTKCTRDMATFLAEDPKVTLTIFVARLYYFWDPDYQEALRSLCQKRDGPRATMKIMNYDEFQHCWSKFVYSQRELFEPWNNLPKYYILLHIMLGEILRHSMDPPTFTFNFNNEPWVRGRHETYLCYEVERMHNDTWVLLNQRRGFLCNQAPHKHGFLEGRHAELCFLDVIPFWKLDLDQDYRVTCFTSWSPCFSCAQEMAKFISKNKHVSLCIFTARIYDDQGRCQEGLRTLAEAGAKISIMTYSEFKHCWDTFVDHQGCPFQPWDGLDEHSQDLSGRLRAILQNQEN

SMILES	inhibition
O=C(Cn1nnc(-c2cccc(C(F)(F)F)c2)n1)NC1CCCC1	inconclusive: 45.8%
COc1cccc(-n2nnc3c(=O)n(Cc4ccc(Br)cc4)cnc32)c1	inactive: -0.95%
Nc1nc(SCC(=O)N2N=C3/C(=C/c4ccco4)CCCC3C2c2ccco2)n[nH]1 (configuration not stated)	inconclusive: 37.4%
CN(C)c1ccc(/C=N/n2c(-c3cccnc3)n[nH]c2=S)cc1	inconclusive: 54.7%
CCOC(=O)c1ccc(-n2c(O)c(/C=N/NC(=O)C3COc4ccccc4O3)c3ccccc3c2=O)cc1 (configuration not stated)	inconclusive: 51.8%
COC(=O)[C@]1(C)N[C@H](CN(C)S(=O)(=O)c2ccc(C(C)(C)C)cc2)[C@@H]2C(=O)N(C)C(=O)[C@@H]21	inactive: 3.98%
O=C(CSc1ccc(-c2ccncc2)nn1)N1CCCCC1	inconclusive: 61.7%
Cc1cc(OC(=O)c2ccc3ccccc3c2)c([N+](=O)[O-])c(=O)[nH]1	inconclusive: 37.7%
Cc1cccc(-n2ccc(=O)c(C(=O)O)n2)c1	inactive: -11%
Cc1ccc2nc(NC(=O)CC3Oc4ccccc4NC3=O)sc2c1 (configuration not stated)	inconclusive: 43.8%
CN(CCOC(=O)CN1C(=O)c2ccccc2C1=O)C1=NS(=O)(=O)c2ccccc21	inconclusive: 58.4%
CC(=O)NC1=NN(C(C)=O)C(c2ccco2)S1 (configuration not stated)	inconclusive: 58.8%
O=C1CS/C(=C\S(=O)(=O)c2ccc(Cl)cc2)N1	inconclusive: 27.6%
OCCC1CN(Cc2cnc(N3CCCC3)s2)CCN1C1CCCC1 (configuration not stated)	inconclusive: 36.9%
CC(=O)c1cccc(NC(=O)c2sc3nc4n(c(=O)c3c2C)CCCCC4)c1	inconclusive: 35.2%
C/C(=N\N=C1\NC(=O)CS1)c1cccs1	inconclusive: 56.1%
COc1ccc(NC(=O)Nc2cnccn2)cc1	inconclusive: 36.2%
O=C(CC1C(=O)NCCN1Cc1ccc(F)cc1Cl)NC1CCCCCCC1 (configuration not stated)	inconclusive: 45.7%
Cc1ccc(-c2cc(-c3ccccc3)c3c(N)c(S(C)(=O)=O)sc3n2)cc1	inconclusive: 52.6%
Cc1cc(=O)[nH]c(SCC(=O)c2ccccc2)c1C#N	inconclusive: 57%
CC(C)c1ccc(Nc2nnc(SCC(=O)Nc3ncc(S(=O)(=O)c4ccc([N+](=O)[O-])cc4)s3)s2)cc1	inconclusive: 38.9%
O=C(O)c1ccc(NS(=O)(=O)c2ccc3c(c2)C2C=CCC2C(c2ccccc2F)N3)cc1 (configuration not stated)	inactive: -10%

SMILES	inhibition
Cc1ccc2sc(N(CCCN(C)C)C(=O)c3ccc(S(=O)(=O)N4CCOCC4)cc3)nc2c1C	inactive: 7.87%
COc1ncccc1C(=O)N1CCCC(C(=O)c2cccc(OC(C)C)c2)C1 (configuration not stated)	inconclusive: 37.8%
COc1cccc(N2C(=O)/C(=C\c3cccs3)NC2=S)c1	inactive: 7.97%
Cc1ccc(OCc2nnc(SCC(=O)Nc3ncc(C)s3)o2)cc1	inconclusive: 43.9%
O=C(NC(=S)Nc1ccccc1)c1csnn1	inconclusive: 52.4%
CCN(CC)C(=O)c1ccc(O)c(OC)c1	inconclusive: 35.4%
CC(NS(=O)(=O)c1ccccc1)C(=O)Nc1ccc2c(c1)OCCO2 (configuration not stated)	inactive: 0.08%
Cc1cc(Oc2ccc(Cl)cc2)nc(-c2ccccn2)n1	inconclusive: 41.6%
CC(C)(C)SCCNC(=O)COc1ccccc1	inconclusive: 41.5%
CC(NC(=O)c1cc(-c2ccccc2)nc2ccccc12)C1CCCO1 (configuration not stated)	inconclusive: 41.2%
O=C(O)c1cc(NC(=O)C2CCCO2)cc(NC(=O)C2CCCO2)c1 (configuration not stated)	inconclusive: 39%
O=C(Cn1c[n+](CC(=O)c2ccc([N+](=O)[O-])cc2)cn1)c1ccc([N+](=O)[O-])cc1	inconclusive: 40.5%
O=C(NCc1ccco1)c1cccnc1Cl	inactive: 2.06%
O=C(NN1C(=O)/C(=C/C=C/c2ccccc2)SC1=S)c1ccncc1	inactive: 10.1%
NC(=O)[C@@H]1CCCNc2c(F)cc([N+](=O)[O-])cc2C(=O)N[C@@H](CO)C(=O)N[C@@H](Cc2ccc(O)cc2)C(=O)N1	inconclusive: 33.4%
O=C(O)CCCn1cc(NC(=O)c2cc(F)c(F)cc2Cl)cn1	inconclusive: 48.4%
COCc1cc(C)nc2sc3c(=O)n(Cc4ccco4)nnc3c12	inconclusive: 37.2%
CCN(CC)S(=O)(=O)c1ccc(C)c(N=C=S)c1	inconclusive: 46%
O=C(Oc1cccc(NC(=O)c2ccccc2Cl)c1)c1ccc([N+](=O)[O-])cc1	inconclusive: 13.8%
COc1ccc(-c2n[nH]c(=S)n2/N=C/C=C\c2ccccc2OC)cc1	inconclusive: 42.4%
O=C(NCc1ccccc1)N(Cc1nc2ccccc2c(=O)[nH]1)C1CCCC1	inconclusive: 36.3%
COc1ccc(N2CCN(C(c3ccccc3OC)c3nnnn3Cc3ccco3)CC2)cc1 (configuration not stated)	inconclusive: 49%

SMILES	inhibition
CC1=C(C(=O)OCc2ccccc2)C(/C=C/c2ccccc2)N2C(=O)CCSC2=N1 (configuration not stated)	inconclusive: 34.3%
CC1CC(C)CN(c2oc(-c3ccco3)nc2C#N)C1 (configuration not stated)	inconclusive: 34.9%
OCC1(Cc2ccccc2)CCN(Cc2ccc(-c3ccco3)cc2)CC1	inconclusive: 55.1%
COc1ccc2[nH]c(C)cc(=O)c2c1	inactive: -0.89%
CCSc1nnc(NC(=O)c2cc(C)on2)s1	inconclusive: 52.3%
O=C1CC(N2CCN(Cc3ccccc3)CC2)C(=O)N1c1ccccc1 (configuration not stated)	inconclusive: 50.4%
COC(=O)[C@@H]1CC[C@H](C)[C@@H](c2ccc(C)cc2)N1C(=O)c1ccc(/C=N/OC[C@@H](O)COCc2ccco2)cc1	inconclusive: 39.5%
CCOc1ccccc1C(=O)NC1CC2CCCC(C1)N2C1CC1 (configuration not stated)	inconclusive: 34.2%
O=c1[nH]c2cc3c(cc2cc1CN(CC1CCCO1)S(=O)(=O)c1ccccc1)OCCO3 (configuration not stated)	inconclusive: 37.1%
CCN(CC)S(=O)(=O)c1cc(NC(=O)CCNC(=O)c2ccccc2Cl)ccc1C	inconclusive: 36%
CCOC(=O)Cc1csc(NC(=O)c2ccc(S(=O)(=O)N3CCCCC3)cc2)n1	inconclusive: 35.4%
CN(C)CCCN1C(=O)c2cccc3c([N+](=O)[O-])ccc(c23)C1=O	inconclusive: 36.9%
CCc1cccc(C)c1NC(=O)N(C)C1CCCCC1	inconclusive: 64.5%
O=C(NCc1n[nH]c(=S)n1-c1ccc(Cl)c(Cl)c1)c1cccs1	inconclusive: 37.1%
COc1cccc(C(O)c2cnc(C(C)C)n2C)c1OC (configuration not stated)	inconclusive: 26.6%
Cc1ccc(S(=O)(=O)CCC(=O)c2ccc(O)cc2O)cc1	inconclusive: 47.7%
CC1=CC(C#N)(C#N)C(C#N)(C#N)C(c2ccccc2)N1 (configuration not stated)	inconclusive: 48.3%
CC(C)CC(=O)Nc1ccc(S(=O)(=O)NCc2ccco2)cc1	inconclusive: 35.4%
COc1cccc(/C=C/C(=O)c2ccc3c(c2)OCCO3)c1OC	inactive: -6.76%
CCOC(=O)Cn1c(-c2ccccc2)nc2ccccc2c1=O	inconclusive: 46.1%
CCC1(c2ccccc2)C(=O)NCNC1=O	inconclusive: 33.8%
N#Cc1c(-c2ccco2)nc(SCC(=O)Nc2cccc(Cl)c2)[nH]c1=O	inconclusive: 40.8%

Individual results from the results shown.
`Cc1cc(Oc2ccc(Cl)cc2)nc(-c2ccccn2)n1` | inhibition: inconclusive: 41.6%
`Cc1cc(=O)[nH]c(SCC(=O)c2ccccc2)c1C#N` | inhibition: inconclusive: 57%
`COc1ccc(-c2n[nH]c(=S)n2/N=C/C=C\c2ccccc2OC)cc1` | inhibition: inconclusive: 42.4%
`CC1CC(C)CN(c2oc(-c3ccco3)nc2C#N)C1` (configuration not stated) | inhibition: inconclusive: 34.9%
`Nc1nc(SCC(=O)N2N=C3/C(=C/c4ccco4)CCCC3C2c2ccco2)n[nH]1` (configuration not stated) | inhibition: inconclusive: 37.4%

(more compounds)

SMILES	inhibition
CCN(CC(=O)Nc1ccccc1OC)C(=O)C1CC2C=CC1C2 (configuration not stated)	inconclusive: 51.2%
CC1=N/C(=C/c2ccco2)C(=O)O1	inconclusive: 33.1%
Cc1ccc2c(c1)c1c3n2CCN(C(=O)CN2CCN(C)CC2)C3CCC1 (configuration not stated)	inactive: -1.2%
O=S(=O)(c1ccc(Br)c2nsnc12)N1CCOCC1	inconclusive: 52.5%
O=C(O)CC(c1cccc2ccccc12)n1cccc1 (configuration not stated)	inconclusive: 38.3%
Cc1cccc(NC(=O)Nc2cnccn2)c1	inconclusive: 43.9%
O=C(CNS(=O)(=O)c1ccc(Br)s1)N1CCN(c2ccc(F)cc2)CC1	inconclusive: 44.6%
O=C(CCCCn1c(=O)[nH]c2ccccc2c1=O)NCCc1c[nH]c2ccccc12	inconclusive: 34%
Oc1ccccc1CNc1cnc2ccccc2c1	inconclusive: 41.3%
O=C(COc1ccccc1[N+](=O)[O-])N/N=C/c1ccc(O)cc1	inconclusive: 35.7%
COc1ccc(OC)c(NC(=O)CSc2nnc(Cc3cccn3C)n2CCc2ccccc2)c1	inconclusive: 61.6%
COc1ccc2c(=O)c(N3C(=O)c4ccccc4C3=O)c(C)oc2c1	inconclusive: 11.7%
O=C(NN=C1CCC(=NNC(=O)c2cccnc2)CC1)c1cccnc1	inconclusive: 47.3%
CCOc1ccccc1C1C(C(N)=O)=C(C)Nc2nc(CCCO)nn21 (configuration not stated)	inconclusive: 51.4%
O=C(Nc1cccnc1Cl)c1cccnc1Cl	inconclusive: 47.1%
COc1ccc(NC(=O)CCCN2C(=O)/C(=C\c3ccco3)SC2=S)cc1	inconclusive: 50.4%
CC[C@H]1OC(=O)C[C@@H](O)[C@H](C)[C@@H](O[C@@H]2O[C@H](C)C[C@H](N(C)C)[C@H]2O)[C@@H](CC=O)C[C@@H](C)C(=O)C=C[C@]2(C)O[C@H]2[C@@H]1C	inconclusive: 33.1%
C#CCNC(=O)C1=C[C@H](c2ccc(C(F)(F)F)cc2)[C@@H](CCCO)[C@H](OCC)O1	inconclusive: 52.2%
O=C(NCCCN1CCOCC1)c1ccc(NC(=O)C2COc3ccccc3O2)cc1 (configuration not stated)	inconclusive: 52.4%
CS(=O)(=O)N(CCc1ccccc1)CC(=O)N1CCCC1	inconclusive: 41.2%
CN[C@H]1C[C@H]2c3[nH]c4ccccc4c3CCN2C(=O)[C@H]1[C@H](C)O	inactive: -5.11%

— PubChem BioAssay AID1117319 (Southern Research Institute, 2015)
